Experimental data: PubChem BioAssay AID1508600 (Functional Genomics Laboratory (NCATS/FGL), 2020)
In all, about 53,000 sequences went through this assay and about 3,700 (7%) were called active.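 How the source made its calls: active means gene knockdowns whose robust z-score for IL-1 alpha signal is at least 2 or at most -2, so actives lie on both sides; inactive means the rest.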 This is one part of the list.

Experiment: Components of the Cytosolic LPS Sensing Pathway: Gene Identification via Genome-wide siRNA Screen;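 further: robust z of the log signal after scaling to non-targeting control siRNA wells of the plate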
Settings: RAW264.7 macrophages, IL-1a HTRF, actives lie on both sides, screened at 100 nM (by protocol), cells primed 5 h with Pam3CSK4 first
Outline: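 Mouse macrophage line RAW264.7 is transfected with siRNA (100 nM final), grown 48h, primed with TLR ligand Pam3CSK4 5 h and given intracellular LipidA 24 h. IL-1a in supernatant is read by HTRF and viability by luminescence.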

Sequence	z-score
GGGAUUGCAUGGUUAAACUTT against Nfam1	inactive: -0.901
GGUCAUUUGUUGUAUGUAGTT against Cdr1os	inactive: -1.61
GCCUCAGGAAGCAGAAUGATT against Krt78	inactive: -0.196
GCUACUAAAGGUUUUAGGATT against Rps6ka2	inactive: -0.335
CCUUGGACUUGAGUUCCAATT against Ssu2	inactive: 1.58
CCCAACUGUUCAGAAAAUATT against Olfr1212	inactive: -0.00602
GCGAUCCAGGAGCUAUCAATT against Helb	inactive: -0.879
CCUGCUUACGUGAAAUACUTT against Rap1gap2	inactive: -0.248
GGUUCUUAUCUCUAUUCAGTT against Olfr1270	inactive: 0.432
GCAGCAGAACUUUUUUGCCTT against Hif1an	inactive: 0.587
GGUUCACAGUAACCAUUGGTT against Zc3h18	active: -2.45
GCAAGAAACACGGAGGUGATT against Olfr1231	inactive: -1.06
GGCCUUCGUUGAAUUCUUGTT against C1qbp	inactive: -0.0708
GCAAGCUAGAGAAAAUCAGTT against Serpinb3b	inactive: -0.231
GCAUAUCCUAAACACUGUUTT against Pqlc3	inactive: -0.966
GCAAUAGGCUUUUAUUGUCTT against 5930422O12Rik	inactive: -1.64
GAUGAAAUCUAAAGAUGGGTT against Olfr178	inactive: 0.411
GGUGUCAUAGACAUGAAAATT against Armc8	inactive: -0.977
GGAUUUAGAUUUUUCCCUCTT against Alox12e	inactive: 0.15
GGAAGAACAGGAUUGUGAATT against Gpr156	inactive: -0.0843
GGAAGAACUAGAAGAAAAUTT against Uso1	inactive: -0.228
GCAACAUUGCAUCUAUUUATT against Dbx1	inactive: 0.866

Sequence	z-score
GGAUGUGGUUCUUGAACAUTT against Chid1	inactive: 0.259
GGGUGUGUUGUAUCUCCCUTT against Cdh26	inactive: -0.964
GGAGUUUUGUGAACUAUGATT against Slc36a3	active: -2.73
GGUCAACCCAGCCUAUUCATT against Tmem129	inactive: -0.744
GGACUUGAACCCAGUUUGCTT against Arhgef4	inactive: 0.78
GGUAUUGACCAAGAAGAAATT against Taf12	inactive: -1.85
GGCACAGAAAAUCUCUGAUTT against Psmd3	inactive: -0.465
GCAAAGAACGGAAUGCACCTT against Dtd1	inactive: -1.03
GGAAGUUCAUCAUGAUAUCTT against Cxadr	inactive: -0.108
GGAAUAUGUGCAGAAGCUGTT against Fgd2	inactive: -1.2
GGUGACUCUGAUUCUCAUATT against Slc22a13	inactive: -0.176
GCUCAUGUAUGUGAAUUUGTT against Ptx3	inactive: -1.25
GGUGAGGUAGGUUACUCAGTT against Reps1	active: -2.16
GGCUAUCAGUUUCAAUGAGTT against Olfr663	inactive: 0.0195
GGCUUAGAAUCAGACUUGUTT against Tor3a	inactive: 0.673
CCAACUCCUAACAGACCUATT against Csf2rb	inactive: 0.773
GGACUGGAAGAAUUUUUUGTT against Mrpl47	inactive: 0.293
GGAACGGCUGAUCACUCUGTT against Otop1	inactive: -0.237
GCUUUUGCUACAAGUGUAUTT against Cop1	inactive: -0.593
GCUAAUAAUGGUCAAAGCCTT against Prrt3	inactive: -0.963
GGCCUACGACAAAUCCAAATT against Csrp2	inactive: 1.14
GCUGAGUUCAUUGCAAUGCTT against Cyp4a12b	inactive: 0.274

Random excerpt: 4 entries already listed.
Sequence	z-score
GGAACGGCUGAUCACUCUGTT against Otop1	inactive: -0.237
GGUAUUGACCAAGAAGAAATT against Taf12	inactive: -1.85
GCAACAUUGCAUCUAUUUATT against Dbx1	inactive: 0.866
GGACUGGAAGAAUUUUUUGTT against Mrpl47	inactive: 0.293

Additional records follow.

Sequence	z-score
CCAGUUCCGGUCAGAUUAUTT against Gnal	inactive: -1.55
GGAAAGUUAAUGCACAUUUTT against Hmg20a	inactive: -1.68
GGUAUGCAACCUUGCCUUUTT against Coa3	inactive: 0.945
GGAGACCUGUGACUCCUUATT against 4932415M13Rik	inactive: 1.9
GCAAAGGUUCUAGUUGAUATT against Cct2	inactive: -0.585
GGAACCAGAGGACAAAGACTT against Ccdc96	active: -2.43
CGAAGGUCGUUAUUAUAAUTT against Wls	inactive: 0.599
CCGUGGUCUACUCCAUCAUTT against Slc6a19	inactive: 1.19
GGGAAGGAACUUGAUUUGUTT against L3mbtl4	inactive: -0.0396
GCGAAAGAUGGAAGACGACTT against Gtf3c1	inactive: 1.18
GGAGUUGGCAACAAGUUCUTT against Btbd35f1	inactive: -0.196
GGACCUUGUACCCAUUCCUTT against Prr5	inactive: 1.01
GCUCAACGCAUUUUUCCAUTT against Neurod2	inactive: 0.57
CGGCACCAGUGUUCUAUUGTT against Ddi2	inactive: 1.91
GGCAACUAAGGCUAAGAAGTT against H1f4	inactive: -1.89
GGACUGUUGCAUGACUCUCTT against Evc	inactive: 1.08
CCUACUCUCUAGAAAAGGATT against Olfr1006	inactive: -1.76
GGGAGUCCGUUCAAACUCGTT against Pttg1	inactive: -0.576
GCAUGCGAUGAAGACAACATT against Efcab11	inactive: 1.17
GGCCAUUUCCAUCAGAGGATT against Vav2	inactive: -1.31
GGAGUGUGCGGAACAUUCUTT against Slc17a5	inactive: 0.364
GGUCUUACCUUUUGAAAAATT against Mtbp	inactive: 0.0999

Sequence	z-score
CCAACAGCAACGAUGACAATT against Thoc5	active: -2.94
GCUUUGACCUCGAAAAUGGTT against Pde4c	inactive: -0.0868
GGUGAAGAUGGACUCUCUGTT against Trmt10b	inactive: -1.15
GGAGUCAAAUGAUUAUGUCTT against Lax1	inactive: -0.776
GUAACCAGUUCUUCUCUGUTT against Vmn1r24	inactive: -0.443
GGCGUGCUUUCUACCAAGGTT against Slco1a5	inactive: 0.346
GGAGUUGUUCAGGUCCCGATT against Crlf1	inactive: -0.249
CCUAAAGACGUGCAAUAUGTT against Zfp287	inactive: 0.526
GGAAAAACAAGCAUUAGGUTT against Mthfsd	inactive: -0.737
GUCACUGAAUUUCUCCUCUTT against Olfr104-ps	active: -2.28
GGAAUGUUACCCUUCAACUTT against Slc25a13	inactive: -0.0366
GGCUUUGAUGUCAGCACUGTT against Ngrn	inactive: 0.247
GCUAUUGACCAGGUUAUAATT against Pdhb	inactive: 1.06
GGCACGAUACUUAUUUGAATT against Nudt13	inactive: -1.43
GGCUUUGGAUGUUUUUGUATT against Fgf10	inactive: -1.46
GCCUCCAUAAUUGUCAAUATT against Rbks	inactive: -0.563
CCAGAUGGUCUAUAUCGUATT against Plscr4	inactive: -1.5
GUACACUCAAUCACUCUUGTT against Rexo5	inactive: 0.966
CCUGUGAAAGAUGCUUAUATT against Capn7	inactive: -1.65
GCGAGCAUGAAGUUAGUAATT against C230029F24Rik	inactive: 0.914
CGUGACGUAUCUGUGGUCATT against St8sia4	inactive: 0.424
GGCAGAACACAGUUCGAUCTT against Tbcb	inactive: 0.165

Sequence	z-score
GCUUAAUCGAACCAGAGUGTT against 2610524H06Rik	inactive: -1.24
GAGGUCAUUCCACGACGGUTT against Prpmp5	inactive: 0.391
CCAUCAGGUUUAAGUCGUATT against Vps36	inactive: -0.698
CGCAUUACAAUUCAUCAUCTT against Rnf170	inactive: 0.827
GGCUGCAUCUAUAACAUAATT against Olfr611	inactive: -0.767
GGUGAAGCUGCUGAGAAAGTT against Angptl1	inactive: 0.0726
CCAAGUAACAGUUUAGUAGTT against Nme5	inactive: 0.358
GGUCCUAGAGAAUCUCCAGTT against Tst	inactive: -2
GGGCCUUUAAAGUAGUUGATT against Gm5115	inactive: 0.513
GGUGACUGAAAUCAAACACTT against Il9r	inactive: -1.71
GGUUUUACAGAACAUGGUATT against Tox4	inactive: -1.24
CCUUAAAAGUAACCACUGUTT against Slc6a6	active: 2.38
GCUGGAGACUACUACGUGCTT against Bex2	inactive: 1.93
CCAUGACACUCAUUCCCAGTT against Tbc1d7	active: -2.64
GGCAUUUCAUGUAGCUAAATT against Spata18	active: 2.04
GUCACCUAGCCUUUGUUGATT against Olfr1038-ps	inactive: -0.0572
GGAUAUUUGGAGGACAACCTT against C1s1	inactive: 0.0678
GCCCAAAUUGGGUUCAUCATT against Pde9a	inactive: 0.394
